PubChem BioAssay AID504744, Drosophila RNAi Screening Center – 2011
The screen tested about 23,000 reagents; below is a random part of those with a known target gene and a result. Over the whole deposit, 98 (0.43%) got an active call. 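Only hit calls are given; the phospho-dAkt signals, z-scores and hit direction were not deposited.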 A plus sign joins genes that one reagent is predicted to hit.

Test: 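Identify dsRNAs that increase or decrease phospho-dAkt after insulin treatment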 (primary screen)
Cell system: Drosophila Kc167 cells
Reagent: long dsRNA against Drosophila genes, 250 ng dsRNA per well of a 384-well plate
Time to read-out: 3 days of knock-down, then overnight serum-free starvation before stimulation
Treatment: bovine insulin at 387 nM for 10 minutes after 12 h without serum
Detection: 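Per-well phospho-dAkt level from an in-cell fluorescent antibody stain, divided by a DNA-dye signal; log2 residuals turned into z-scores that take cell number into account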
Active means: 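Hit in the insulin screen when the two-replicate mean z-score is more extreme than plus or minus 2.5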

gene	dsRNA	Call
IFT52 (Intraflagellar transport 52)	DRSC03271	inactive
CG15034	DRSC17966	inactive
SF1 (Splicing factor 1)	DRSC16844	inactive
ash2 (absent, small, or homeotic discs 2)	DRSC16902	inactive
Akt (Akt kinase)	DRSC14108	active
CG8960	DRSC08612	inactive
CG12920	DRSC06234	inactive
CG34457	DRSC06924	inactive
CG15233	DRSC04967	inactive
CG2772	DRSC00530	inactive
CCHa1 (CCHamide-1)	DRSC14821	inactive
Dcr-1 (Dicer-1)	DRSC15646	inactive
Sf3b6 (Splicing factor 3b subunit 6)	DRSC09972	inactive
Gycalpha99B (Guanylyl cyclase alpha-subunit at 99B)	DRSC16690	inactive
Rpn6 (Regulatory particle non-ATPase 6)	DRSC07541	inactive
CG1631	DRSC20535	inactive
Fic (Fic domain-containing protein)	DRSC03247	inactive
mRpL12 (mitochondrial ribosomal protein L12)	DRSC10467	inactive
CG32834	DRSC21929	inactive
CG15459	DRSC20530	inactive
CG15459	DRSC21383	inactive
CG15923	DRSC15129	inactive
CG6966	DRSC16156	inactive
scramb2 (scramblase 2)	DRSC08543	inactive
CG5853	DRSC01103	inactive
CG5853	DRSC02906	inactive
CG30047	DRSC05340	inactive
CG12546	DRSC11676	inactive
CG15025	DRSC15031	inactive
robl62A	DRSC08153	inactive
CG7912	DRSC16343	inactive
CG42535	DRSC09041	inactive
Kpc1 (Kip1 ubiquitination-promoting complex subunit 1)	DRSC16107	inactive
CG8206	DRSC20093	inactive
ppk29 (pickpocket 29)	DRSC04205	inactive
smash (smallish)	DRSC12139	inactive
smash (smallish)	DRSC12239	inactive
CG34133	DRSC16319	inactive
CG34133	DRSC22239	inactive
Atg4a (Autophagy-related 4a)	DRSC00656	inactive
CG30286	DRSC04070	inactive
mmy (mummy)	DRSC02002	inactive
CG32017	DRSC17183	inactive
Apoltp (Apolipoprotein lipid transfer particle)	DRSC02508	inactive
Ost48 (Oligosaccharyltransferase 48kD subunit)	DRSC18693	inactive
Mst57Da (Male-specific RNA 57Da)	DRSC16744	inactive
CG30088	DRSC21764	inactive
Skp2 + CG1103	DRSC12160	inactive
Skp2 + CG1103	DRSC22356	inactive
CG15517	DRSC15056	inactive
GILT1 (Gamma-interferon-inducible lysosomal thiol reductase 1)	DRSC16565	inactive
CG9164	DRSC19087	inactive
CG9164	DRSC20162	inactive
EAChm (Enhancer of Acetyltransferase Chameau)	DRSC10010	inactive
AOX4 (Aldehyde oxidase 4)	DRSC15337	inactive
Ide (Insulin degrading metalloproteinase)	DRSC11867	inactive
BuGZ (Bub3 interacting GLEBS and Zinc finger domain protein)	DRSC02642	inactive
BuGZ (Bub3 interacting GLEBS and Zinc finger domain protein)	DRSC02643	inactive
CG7650	DRSC10898	inactive
CG17199	DRSC15192	inactive
Bdbt (Bride of doubletime)	DRSC15218	inactive
CG5160	DRSC02821	inactive
CG3198	DRSC18292	inactive
Atx-1 (Ataxin 1)	DRSC18365	inactive
CG8860	DRSC07291	inactive
CG17327	DRSC15225	inactive
PpD5 (Protein phosphatase D5)	DRSC04641	inactive
Trf4-1 (Topoisomerase related function 4-1)	DRSC17775	inactive
tkv + CR14033 + tRNA:Asp-GTC-2-1 + 1 more	DRSC00861	inactive
CG7907	DRSC16339	inactive
pst (pastrel)	DRSC11003	inactive
prt (portabella)	DRSC16894	inactive
QIL1	DRSC10888	inactive
CG32249	DRSC08101	inactive
CG32249	DRSC08177	inactive
CG32249	DRSC22444	inactive
kdn (knockdown)	DRSC18328	inactive
CG9877	DRSC04587	inactive
dysc (dyschronic)	DRSC10273	inactive
dysc (dyschronic)	DRSC11040	inactive
dysc (dyschronic)	DRSC22334	inactive
dysc (dyschronic)	DRSC22824	inactive
CG13711	DRSC08320	inactive
Grl43a (Gustatory receptor-like 43a)	DRSC06383	inactive
CG12231	DRSC19445	inactive
OSCP1	DRSC06304	inactive
SMC2 (Structural maintenance of chromosomes 2)	DRSC07544	inactive
CG31715	DRSC21607	inactive
CG2246	DRSC15433	inactive
Sdb (SAXO downstream of blistered)	DRSC06272	inactive
Sdb (SAXO downstream of blistered)	DRSC06273	inactive
Sdb (SAXO downstream of blistered)	DRSC07155	inactive
Neto (Neuropilin and tolloid-like)	DRSC18982	inactive
Neto (Neuropilin and tolloid-like)	DRSC19503	inactive
Neto (Neuropilin and tolloid-like)	DRSC19716	inactive
Neto (Neuropilin and tolloid-like)	DRSC19717	inactive
CG10949	DRSC02112	inactive
CG2113	DRSC08554	inactive
CG14421	DRSC17918	inactive
vilya	DRSC18588	inactive
CG9132	DRSC20159	inactive
CG17186	DRSC15180	inactive
RNASEK (Ribonuclease kappa)	DRSC21641	inactive
Gr64c (Gustatory receptor 64c)	DRSC08445	inactive
RabX4	DRSC22189	inactive
CG12682	DRSC17873	inactive
Fie (Fire exit)	DRSC08158	inactive

Part of the list above, reformatted:
| gene | dsRNA | Call |
| --- | --- | --- |
| Sf3b6 (Splicing factor 3b subunit 6) | DRSC09972 | inactive |
| Gycalpha99B (Guanylyl cyclase alpha-subunit at 99B) | DRSC16690 | inactive |
| Rpn6 (Regulatory particle non-ATPase 6) | DRSC07541 | inactive |
| CG1631 | DRSC20535 | inactive |
| Fic (Fic domain-containing protein) | DRSC03247 | inactive |
| mRpL12 (mitochondrial ribosomal protein L12) | DRSC10467 | inactive |
| CG32834 | DRSC21929 | inactive |
| CG15459 | DRSC20530 | inactive |
| CG15459 | DRSC21383 | inactive |
| CG15923 | DRSC15129 | inactive |
| CG6966 | DRSC16156 | inactive |
| scramb2 (scramblase 2) | DRSC08543 | inactive |
| CG5853 | DRSC01103 | inactive |
| CG5853 | DRSC02906 | inactive |
| CG30047 | DRSC05340 | inactive |
